# Assay results as given in PubChem BioAssay AID2685 (National Center for Advancing Translational Sciences (NCATS), 2010).
# Among all 320,000 compounds or so, about 2,100 (0.66%) were called active. The inconclusive results got no clear call from the source; some entries with a clear call stand among them for comparison. Calls follow the shape of the dose curve; as a rule, active = well fitted inhibition curve with a large enough effect in the signal ratio, with a control signal flat (not every such curve was filed as active); inconclusive = small, poorly fitted or top-dose-only effect, or effect the other way, or a change in a side signal; inactive = flat fitted curve, though single readings scatter; the % refers to the signal ratio. Potencies beside an inconclusive call are fits to weak or partial responses and may not hold up.
# Experiment: qHTS Assay for Lipid Storage Modulators in Drosophila S3 Cells
# Conditions: BODIPY lipid droplet fluorescence, 18-24 h, cells fed with added oleic acid; lipid storage change, negative = inhibition: at 46.1 µM (top of the series) unless noted
# How it was run: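 Laser-scanning cytometry quantifies lipid droplet accumulation (500–530 nm total intensity; droplet/cell object ratio) in oleic acid-fed (400 uM added) Drosophila S3 cells treated with a concentration series. 20 uM Triacsin C defined 100% inhibition.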
# % is scaled to controls: 0 for no effect and ±100 for the full control effect; potency is read from the fitted curve at half-maximal effect.
Compound,"lipid storage change, negative = inhibition",Potency
C/C(=N\NC(=O)c1ccc(O)cc1)c1ccc2c(c1)OCCO2,inconclusive: -0.532%,
CC1(C)CC(=O)C2=C(C1)N(Cc1cccnc1)C(=O)C2(NC(=O)c1cccnc1)C(F)(F)F (stereo not drawn),inconclusive: -4.57%,
COc1cccc(NC(=O)C(=O)c2cn(CC(=O)N3CCOCC3)c3ccccc23)c1,,"inconclusive: 29.1 µM [rising, single point]"
NC(=O)COc1ccc(C2c3c(oc4ccccc4c3=O)C(=O)N2CC2CCCO2)cc1 (stereo not drawn),inconclusive: 12.7%,
O=C(OCC(=O)N1CCc2ccccc21)C1=COCCO1,inconclusive: -11.3%,
CC(C)CNC(=S)NNC(=O)c1csc2ccccc12,inconclusive: 203%,
CCc1nnc(NC(=O)CSc2nnc(-c3cccnc3)n2CCc2ccccc2)s1,,"inconclusive: 2.91 µM [activator, partial curve]"
CCOc1ccccc1C(=O)NCC(=O)N(C)Cc1cccnc1,inconclusive: 2.87%,
O=C(CSc1cccc[n+]1[O-])N1CCCCCC1,inconclusive: 5.21%,
COc1ccc(NC(=O)Nc2ccc(Cc3ccncc3)cc2)cc1OC,inconclusive: 18.1%,
COc1ccc(-c2cc(C(=O)N3CC4(C)CC3CC(C)(C)C4)no2)cc1 (stereo not drawn),inconclusive: 22.4%,
CCOC(=O)c1ccc(-n2c(-c3ccco3)nc3ccccc3c2=O)cc1,inconclusive: 17.6%,
C=CCC1(N(C(C)=O)c2ccccc2C)CCCCC1,inactive,
CCOC(=O)N1CCC(NC(=O)Cn2nc(-c3ccccc3)ccc2=O)CC1,inconclusive: -2.63%,
CC(C)Sc1n[nH]c(=O)n1-c1ccccc1,inconclusive: -4.18%,
CCCCC(CCC(=O)Nc1cc([N+](=O)[O-])ccc1O)C(=O)O (stereo not drawn),inconclusive: 8.55%,
CCO[C@H]1OC(C(=O)N2CCN(Cc3ccc4c(c3)OCO4)CC2)=C[C@@H](C2CCCCC2)[C@@H]1CCCO,,"inconclusive: 32.6 µM [falling, single point]"
COc1ccc(CNC(=O)CCS(=O)(=O)Cc2cccc(Cl)c2)c(OC)c1,inconclusive: -22.1%,
NC(=O)NC(=O)C[n+]1cccc(/C=N/O)c1,inconclusive: 4.9%,
O=C(O)c1ccc(CSc2nnc(-c3ccccc3)n2-c2ccccc2)cc1,,"inconclusive: 7.31 µM [cytotoxic, partial curve, poor fit]"
O=[N+]([O-])c1ccc(/C=N/n2c(C3CCCCC3)n[nH]c2=S)cc1,inconclusive: -26.9%,
Cc1cc(/C=C2\SC(=S)NC2=O)c(C)n1-c1ccc(O)cc1,inconclusive: -14.2%,
Cc1ccc(OCC(=O)N2CCC(N3CC(C)CC(C)C3)CC2)cc1 (stereo not drawn),inconclusive: -0.262%,
CC(=O)c1cc(CN2CCC(n3nccc3NC(=O)c3ccccc3)CC2)cs1,,"inconclusive: 1.03 µM [activator, full curve, poor fit]"
Cc1nnc(NC(=O)c2cc(-c3ccncc3)nc3c(C)cccc23)s1,,"inconclusive: 6.51 µM [falling, single point]"
CCN(CC)CCNc1ccc2nnc(CCNS(=O)(=O)c3ccc(C)cc3)n2n1,inconclusive: -12.4%,

Compound,"lipid storage change, negative = inhibition",Potency
COc1ccc(OC)c(NC(=O)CSc2sc3c(O)cc(=O)[nH]c3c2C#N)c1,inconclusive: 33.5%,
O=CN1N=C(c2ccccc2)CC1c1ccccc1[N+](=O)[O-] (stereo not drawn),inconclusive: 7.43%,
O=C(Nc1ccc(N2CCN(C(=O)c3ccco3)CC2)cc1)c1ccc([N+](=O)[O-])cc1Cl,inconclusive: -36.3%,
COc1ccc(OCCC(=O)c2ccc(OC)cc2)cc1,inconclusive: 21.5%,
Cc1c(C(=O)N2CCc3ccccc3C2)oc2ccc(S(=O)(=O)N3CCCCCC3)cc12,inconclusive: 21.3%,
Cc1csc(=O)n1CCC(=O)OCC(=O)NCc1ccc(Cl)cc1Cl,inconclusive,
CC(=O)Oc1ccc(C)cc1N1C(=O)c2ccc(C(=O)O)cc2C1=O,inconclusive: 13.2%,
Cc1cc2oc(C(=O)N3CCN(CCc4ccccn4)CC3)c(C)c2cc1C,inactive,
Cc1ccccc1Oc1ncnc2oc(-c3ccccc3)cc12,,"inconclusive: 3.26 µM [rising, partial curve]"
CCCc1cc(=O)oc2cc(OCC(=O)Nc3cc(C)on3)ccc12,,"inconclusive: 0.82 µM [activator, full curve, poor fit]"
O=C(O)CC(CNS(=O)(=O)c1cccc2nsnc12)c1ccccc1 (stereo not drawn),inconclusive: -21.3%,
CC(=O)Nc1ccc(S(=O)(=O)N2CCC(C(=O)NCCC(=O)Nc3ccccc3)CC2)cc1,inconclusive: 36.8%,
NC1=NC(c2ccccc2C(F)(F)F)N(c2ccc(F)c(Cl)c2)C(N)=N1 (stereo not drawn),inconclusive: -11.1%,
O=S(=O)(Nc1cccc(Cl)c1)c1ccc(-n2cccn2)cc1,inactive,
CCCc1nn2c(=O)cc(CSCC(=O)Nc3ccccc3OC)nc2s1,inconclusive: -35.7%,
O=C(Cn1ncc2c(=O)oc3ccccc3c21)N1CCN(c2ccccn2)CC1,inconclusive: 9.57%,
N#CCCn1cc(C(CC(=O)c2ccc(Br)cc2)C(=O)O)c2ccccc21 (stereo not drawn),inconclusive: 46.5%,
O=C(Nc1ccc(Oc2ccc(Cl)cc2)cc1)c1ncn[nH]1,inconclusive: 21.4%,
Nc1nc2nc(-c3ccc(Cl)cc3)cc(C(F)(F)F)n2n1,,"inconclusive: 6.51 µM [rising, single point]"
CCCS(=O)c1nc(C)cc(C)c1S(C)(=O)=O (stereo not drawn),inconclusive: 10%,
COc1ccc([N+](=O)[O-])cc1NC(=O)CSc1nc(C)c(C)c(C)n1,inactive,
O=C(O)CCC(=O)Nc1sc2c(c1C(=O)NCc1ccccc1)CCCC2,inconclusive: 7.05%,
O=C1OC(Nc2ccccn2)c2ccccc21 (stereo not drawn),inconclusive: 5.22%,
CC(C)C(OC(=O)c1nsc(Cl)c1Cl)C(=O)NCC1CCCO1 (stereo not drawn),,"inconclusive: 23.1 µM [activator, partial curve, poor fit]"
Cc1cc(NC(=O)CSc2nnc(-c3ccc([N+](=O)[O-])cc3)o2)no1,,"inconclusive: 0.259 µM [falling, partial curve]"
COc1cccc(NC(=O)CN(C)C(=O)c2c(C)nn(-c3ccccc3)c2Cl)c1,,"inconclusive: 0.461 µM [activator, full curve, poor fit]"

# Taken from above.
# Potency, `Cc1cc(NC(=O)CSc2nnc(-c3ccc([N+](=O)[O-])cc3)o2)no1` reads inconclusive: 0.259 µM [falling, partial curve]
# lipid storage change, negative = inhibition, `CCCCC(CCC(=O)Nc1cc([N+](=O)[O-])ccc1O)C(=O)O` (stereo not drawn) reads inconclusive: 8.55%

# (more compounds)

Compound,"lipid storage change, negative = inhibition",Potency
O=C(Nc1ncc2c(n1)-c1ccccc1OC2)c1ccc(Cl)cc1,inconclusive: -16.1%,
O=c1[nH]ncc(N2CCCC2)c1Cl,inconclusive: -9.97%,
CC1CCCN(C2=C(Cl)C(=O)N(c3cccc(Cl)c3)C2=O)C1 (stereo not drawn),,"inconclusive: 3.26 µM [activator, partial curve, poor fit]"
Cc1nn(CC(=O)Nc2ccc(N(C)C)cc2)c(C)c1[N+](=O)[O-],inactive,
O=C(CSc1ccccc1)NNC(=O)c1ccncc1,inconclusive,
Cc1ccc(OCC(=O)N[C@@H](C)c2nnc3ccccn23)cc1C,,"inconclusive: 0.0651 µM [activator, full curve, poor fit]"
Cc1nc2scc(C)n2c(=O)c1S(=O)(=O)Nc1ccc(N2CCN(C(=O)C(C)C)CC2)cc1,,"inconclusive: 29.1 µM [activator, single point]"
Cc1ccc(CS(=O)Cc2ccc(C(=O)NC3CCCC(C)C3C)o2)cc1 (stereo not drawn),,"inconclusive: 6.51 µM [activator, single point]"
Cc1cc(C)cc(NC(=O)c2ccc(NC(=O)C3C4CC5OC(=O)C3C5C4)cc2)c1 (stereo not drawn),inconclusive: 57.9%,
Cc1ccc(NC(=O)C2=CC(c3cccs3)=NS(=O)(=O)N2C)cc1,,"inconclusive: 18.4 µM [falling, single point]"
S=c1[nH]nc(-c2ccco2)n1/N=C/c1ccc(Cl)c(Cl)c1,inconclusive: -24.4%,
Cc1ccc(Nc2nc(-c3ccc(S(=O)(=O)N4CCOCC4)cc3)cs2)cc1Cl,inconclusive: -28.7%,
CCOC(=O)Cn1c(=O)oc2cc(S(=O)(=O)N3CCN(c4ccccn4)CC3)ccc21,inconclusive: -1.27%,
COc1ccc(OCCC(=O)OCC(=O)NC(=O)NC2CCCCC2)cc1,inconclusive: -14.8%,
Nc1cccc(Oc2c(F)c(F)c(Oc3cccc(N)c3)c(F)c2F)c1,inconclusive: -16.4%,
O=C1CN(C(=O)COC(=O)c2ccccc2O)c2ccccc2N1,inconclusive: -6.87%,
CSc1ccccc1C(=O)Nc1cccc(N(C)S(C)(=O)=O)c1,,"inconclusive: 16.4 µM [activator, single point]"
CC(NC(=O)COC(=O)CCNC(=O)c1ccco1)C12CC3CC(CC(C3)C1)C2 (stereo not drawn),inconclusive: 53.7%,
CC(C)Cc1ccc(/C=C/C(=O)NC2CC2)cc1,inconclusive: 8.88%,
O=C(Nc1nc(-c2ccc([N+](=O)[O-])cc2)cs1)c1c(F)cccc1F,inconclusive: -10.8% [at 9.22 µM],
CCc1[nH]c(=O)c(C#N)c2c1CCCC2,,"inconclusive: 3.26 µM [falling, single point]"
CCNC(=O)c1cccc(NC(=O)c2cc(C3CC3)nc3c2cnn3C(C)C)c1,inconclusive,
CC(=O)c1cc(C#N)c(SCc2ccc(F)cc2)nc1C,,"inconclusive: 6.51 µM [falling, single point]"
Cc1cc(C(=O)NCc2ccco2)on1,inconclusive: -14%,
O=S(=O)(NC1CCCCC1)c1ccc(-c2csnn2)s1,,"inconclusive: 18.4 µM [rising, partial curve]"
Nc1cccc(CCc2ccncc2)c1,,"inconclusive: 0.58 µM [falling, full curve]"

# In a second layout: results already given
Compound	lipid storage change, negative = inhibition	Potency
O=C(CSc1cccc[n+]1[O-])N1CCCCCC1	inconclusive: 5.21%	
COc1ccc(-c2cc(C(=O)N3CC4(C)CC3CC(C)(C)C4)no2)cc1 (stereo not drawn)	inconclusive: 22.4%	
CCCc1cc(=O)oc2cc(OCC(=O)Nc3cc(C)on3)ccc12		inconclusive: 0.82 µM [activator, full curve, poor fit]
COc1ccc(OCCC(=O)OCC(=O)NC(=O)NC2CCCCC2)cc1	inconclusive: -14.8%	
